PubChem BioAssay AID1347075 (National Center for Advancing Translational Sciences (NCATS), 2019)
About 5,500 (1.4%) of roughly 400,000 compounds were called active. Inconclusive means that the source gave no clear call. Such entries were picked first, then a sample of the others. The call rests on the fitted dose curve; in most records, active means well fitted cell-killing curve with a large enough effect; inconclusive means small, poorly fitted or top-dose-only effect, or effect the other way; inactive means flat fitted curve, though single readings scatter. Where the call is inconclusive, the potency comes from a doubtful curve fit.

Assay: qHTS assay for MDR1-selective chemotherapeutics: Primary screen using the parental adenocarcinoma cell KB-3-1; further: nearly all actives have a fitted effect of over 60% in size
Details: KB-3-1 viability, CellTiter-Glo ATP luminescence, 72 h; activity change, negative = cytotoxic: at 46.1 µM (top of the series)
Outline: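 Cytotoxicity in the drug-sensitive parental line KB-3-1 was scored as loss of CellTiter-Glo luminescence following 72 h incubation with compound. Values come from curve fitting of normalized concentration-response data.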
On the % scale 0 is the no-effect control and ±100 the full control effect; potency means the concentration at half of the fitted maximal effect.

| Compound | Potency | activity change, negative = cytotoxic |
| --- | --- | --- |
| NS(=O)(=O)c1ccc(O)c(NC(=O)c2ccc([N+](=O)[O-])o2)c1 | inconclusive: 29.1 µM [cytotoxic, single point] | – |
| CCCCCn1c(CCCNC(=O)c2ccc(Cl)cc2)nc2ccccc21 | inconclusive: 29.1 µM [cytotoxic, single point] | – |
| Cc1ccc(C(=O)c2oc3ccccc3c2NC(=O)c2cc(-c3cc(C)ccc3O)n[nH]2)cc1 | inconclusive: 32.6 µM [cytotoxic, single point] | – |
| CCCCc1ccc(NC(=O)C(C)CC)cc1 (centres undefined) | inactive | – |
| NC(=O)C1CCN(C(=O)C2(NC(=O)Nc3cccc(F)c3)CCCCC2)CC1 | – | inconclusive: -8.87% |
| O=C(CN1CCCCC1)Nc1cccc([N+](=O)[O-])c1 | inactive | – |
| COc1ccc(NC(=O)N2CCc3cc(OC)c(OC)cc3C2)cc1 | inconclusive: 32.6 µM [cytotoxic, partial curve, poor fit] | – |
| COCCn1c(SCC(=O)Nc2cccc(F)c2)nc2c([nH]c3ccccc32)c1=O | inconclusive: 29.1 µM [rising, single point] | – |
| COCCCNC(=O)c1cc2c(-c3cccc(OC)c3)nn(C)c2s1 | inconclusive: 29.1 µM [cytotoxic, single point] | – |
| CCCCC[C@H]1CN(Cc2ccccc2)C(=O)[C@@H]1CC(=O)NCc1ccc(OC)cc1 | inconclusive: 29.1 µM [cytotoxic, single point] | – |
| CCOc1cc(-c2nc(-c3ccc(-c4ccccc4)nc3OCC)no2)cc(OCC)c1OCC | inactive | – |
| C=C(CN(C)C)C(=O)c1ccc(OC2OC(COC(C)=O)C(OC(C)=O)C(OC(C)=O)C2OC(C)=O)cc1 (centres undefined) | inconclusive: 29.1 µM [cytotoxic, single point] | – |
| CN(C)c1ccc(/C=C/c2sc3ccccc3[n+]2C)cc1 | active: 6.51 µM | – |
| COc1ccccc1-c1cn(S(=O)(=O)c2ccc(F)cc2)nc1N | inconclusive: 9.2 µM [cytotoxic, partial curve] | – |
| Cc1ccccc1-c1cc2nc(C)c(Cl)c(=O)n2[nH]1 | inconclusive: 7.31 µM [cytotoxic, partial curve] | – |
| Cc1nnc(SCC(=O)Nc2nccs2)n1C(C)C | inconclusive: 18.4 µM [rising, partial curve, poor fit] | – |
| CCOC(=O)c1c(C)n(-c2ccc(C)cc2)c2ccc(OCC(O)CNCC3CCCO3)cc12 (centres undefined) | inconclusive: 29.1 µM [cytotoxic, single point] | – |
| COc1ccc(-c2noc(CCC(=O)NCc3ccco3)n2)cc1 | inactive | – |
| CC1(C)c2[nH]c3ccccc3c2C[C@H]2C(=O)N(Cc3ccccc3F)C(=O)N21 | inconclusive: 5.8 µM [cytotoxic, full curve, poor fit] | – |
| COc1cccc(/C=N/Nc2snc(SC)c2C#N)c1O | active: 13 µM | – |
| CC(C)(C)c1ccc(/C=C(\c2nc3ccccc3[nH]2)S(=O)(=O)c2ccccc2)cc1 | inconclusive: 32.6 µM [cytotoxic, partial curve, poor fit] | – |
| O=[N+]([O-])c1cc(C=Nc2ccc3ccccc3c2)ccc1Br | inconclusive: 29.1 µM [cytotoxic, single point] | – |

Given as comma-separated lines: entries from further up
Compound,Potency,"activity change, negative = cytotoxic"
Cc1ccc(C(=O)c2oc3ccccc3c2NC(=O)c2cc(-c3cc(C)ccc3O)n[nH]2)cc1,"inconclusive: 32.6 µM [cytotoxic, single point]",–
CCCCc1ccc(NC(=O)C(C)CC)cc1 (centres undefined),inactive,–
NC(=O)C1CCN(C(=O)C2(NC(=O)Nc3cccc(F)c3)CCCCC2)CC1,–,inconclusive: -8.87%

The results go on.

| Compound | Potency | activity change, negative = cytotoxic |
| --- | --- | --- |
| O=C(CCc1nc2ccccc2s1)OCC(=O)c1ccccc1 | inconclusive: 9.2 µM [rising, partial curve, poor fit] | – |
| O=C(N1CCN(c2ccccn2)CC1)N1c2ccccc2Sc2ccccc21 | active: 0.58 µM | – |
| CC1(C(=O)NS(=O)(=O)Cc2ccccc2C(F)(F)F)CCN1C(=O)C/C=C/c1ccccc1 (centres undefined) | inactive | – |
| Cc1ccc2c(cnn2C(=O)CCCC(=O)NCc2ccc(Cl)cc2)c1 | inconclusive: 16.4 µM [cytotoxic, single point] | – |
| Cc1ccc(-c2c3c(=O)n(C)c(=O)n(C)c3c3n2-c2ccccc2NC3c2ccc(C)cc2O)cc1 (centres undefined) | inconclusive: 20.6 µM [cytotoxic, partial curve, poor fit] | – |
| COc1c(CC=C(C)C)cc(C2CC(=O)c3c(O)cc(O)cc3O2)c(CC=C(C)C)c1O (centres undefined) | inconclusive: 23.1 µM [cytotoxic, partial curve, poor fit] | – |
| Cc1ccc(NC(=O)Cc2nn(C)c(=O)c3ccccc23)cc1F | active: 7.31 µM | – |
| CCOc1ccc(OCC)c(NC(=O)c2nnn(CC(=O)Nc3cc(Cl)ccc3OC)c2N)c1 | inactive | – |
| C=CCCc1ccc(C#N)c(SCc2c(C(=O)OCC)c3cc(OC(C)=O)c(Br)cc3n2C)n1 | inconclusive: 5.8 µM [cytotoxic, full curve] | – |
| O=C(NCc1ccncc1)C1=NN(c2ccccc2)C(=O)CC1 | inconclusive: 16.4 µM [rising, partial curve, poor fit] | – |
| CC(=O)Nc1ccccc1OC1=N[S+](=O)([O-])c2ccccc21 | inconclusive: 10.3 µM [cytotoxic, single point] | – |
| Cc1c(NS(=O)(=O)c2ccccc2)c(=O)n(-c2ccccc2)n1C | inactive | – |
| CN(C(=O)CSc1nc(-c2ccccc2)no1)c1ccc(F)cc1 | inactive | – |
| O=c1[nH]c(C2CCN(S(=O)(=O)c3ccc(C(F)(F)F)cc3)CC2)nc2c1nnn2Cc1cccc(F)c1 | inconclusive: 14.6 µM [cytotoxic, partial curve] | – |
| COc1ccc(CN2C[C@@H](CO)O[C@@H](n3cnc4c(NCc5ccco5)ncnc43)C2)cc1 | inactive | – |
| N/C(=N\OC(=O)c1ccc([N+](=O)[O-])cc1)c1cccnc1 | inactive | – |
| Cc1cc([N+](=O)[O-])nn1CCCC(=O)O | inactive | – |
| CCOc1cc(NC(=O)C2CCCO2)c(OCC)cc1NC(=O)C1CC1 (centres undefined) | inconclusive: 2.91 µM [rising, partial curve, poor fit] | – |
| COc1cccc2nccc(/C=C/c3ccc(N(C)C)cc3)c12 | – | inconclusive: 0% |
| COCCNC(=O)CSc1nc2ccccc2c(=O)n1CCC(=O)NCCc1ccc(OC)c(OC)c1 | inconclusive: 5.17 µM [rising, partial curve] | – |
| Cc1cccc2cc(CN(Cc3cccs3)Cc3nnnn3Cc3ccccc3)c(=O)[nH]c12 | inactive | – |
| Cc1cccc(C(=O)NC(=S)Nc2ccc(Cc3ccncc3)cc2)c1 | inconclusive: 20.6 µM [cytotoxic, single point] | – |
